Measurements: paper PMC8018780, “Two peptides targeting endothelial receptors are internalized into murine brain endothelial cells” (PLoS ONE, 2021)
Results are given in words; binding and its absence hold for the method and conditions named. Some binding calls cover weakened binding; strength is not graded here.

Sequences of proteins named here, by UniProt entry; tags and fusion partners are left off. Residues count along the entry.
UniProt P02786, residues 101-760: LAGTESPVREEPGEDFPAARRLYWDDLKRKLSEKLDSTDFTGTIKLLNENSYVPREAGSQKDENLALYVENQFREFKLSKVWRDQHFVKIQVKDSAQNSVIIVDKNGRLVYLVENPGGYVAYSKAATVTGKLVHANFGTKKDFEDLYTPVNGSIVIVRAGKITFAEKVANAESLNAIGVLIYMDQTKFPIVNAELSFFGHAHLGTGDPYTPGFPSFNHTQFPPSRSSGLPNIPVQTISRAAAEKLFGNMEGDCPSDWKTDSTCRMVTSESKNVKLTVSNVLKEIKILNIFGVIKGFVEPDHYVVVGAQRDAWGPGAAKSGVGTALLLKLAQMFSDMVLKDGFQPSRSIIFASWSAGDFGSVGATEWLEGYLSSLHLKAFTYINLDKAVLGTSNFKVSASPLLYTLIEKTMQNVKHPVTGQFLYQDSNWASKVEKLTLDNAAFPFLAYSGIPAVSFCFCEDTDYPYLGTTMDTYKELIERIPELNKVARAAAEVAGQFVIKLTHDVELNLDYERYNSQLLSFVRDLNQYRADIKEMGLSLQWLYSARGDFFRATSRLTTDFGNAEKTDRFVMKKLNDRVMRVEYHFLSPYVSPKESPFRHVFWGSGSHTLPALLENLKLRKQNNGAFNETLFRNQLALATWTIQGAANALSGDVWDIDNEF

Target: recombinant human transferrin receptor (TfR) protein (human) (UniProt P02786)
Test: SPR; Biacore 3000, CM5 chip, receptors immobilised by EDC/NHS coupling (TfR 58 fmol/mm^2, LRP-1 0.025 fmol/mm^2); peptides injected at 0.25-4 uM, 5 uL/min, 25°C, 10 mM HEPES, 150 mM NaCl, 1.5 mM CaCl2, 1 mM EGTA, 0.005% Tween 20, pH 7.4; Langmuir 1:1 model, global fit; both purified

B1: MTfp (peptide 1), peptide derived from melanotransferrin (peptide)
peptide: FRCLVENRGDVPFVTRIR
modifications: C-terminal amide
For B1, the binding was “binds”.

B2: GYR (peptide 2) (peptide)
peptide: GYRPVHNIRGHWAPGK
modifications: C-terminal amide
With B2 the binding was “binds”.
